Reference: US20250076311A1
No constants are given. Whether binding was seen depends on the method and setting. Some binding calls cover weakened binding; strength is not graded here. Where a sequence is shown, tags or fusion partners need not be part of it.

Key:
[1] = biological target: T1, GST-hMSTN 21-120aa (human) (UniProt O14793); assay: Western blot, GST-tagged fragments
T1 sequence: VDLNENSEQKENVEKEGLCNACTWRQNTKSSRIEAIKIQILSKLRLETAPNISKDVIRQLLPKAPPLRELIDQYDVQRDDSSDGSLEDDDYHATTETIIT

[2] = biological target: T2, GST-hMSTN 41-140aa (human) (UniProt O14793); assay: Western blot, GST-tagged fragments
T2 sequence: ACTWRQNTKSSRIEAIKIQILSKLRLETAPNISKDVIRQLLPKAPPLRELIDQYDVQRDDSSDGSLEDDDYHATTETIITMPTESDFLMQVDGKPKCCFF

[3] = biological target: T3, GST-hMSTN 61-160aa (human) (UniProt O14793); assay: Western blot, GST-tagged fragments
T3 sequence: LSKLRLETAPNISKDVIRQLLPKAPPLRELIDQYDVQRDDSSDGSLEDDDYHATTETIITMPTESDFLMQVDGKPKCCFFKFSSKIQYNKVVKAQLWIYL

[4] = biological target: T4, GST-hMSTN 81-180aa (human); assay: Western blot, GST-tagged fragments
T4 sequence: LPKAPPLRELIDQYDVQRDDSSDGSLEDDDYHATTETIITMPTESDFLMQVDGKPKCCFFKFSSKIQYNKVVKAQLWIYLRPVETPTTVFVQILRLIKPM

[5] = biological target: T1, GST-hMSTN 21-120aa (human); assay: drawn table summarising the Western blots of Figure 22C (filled cell = fragment detected)
[6] = biological target: T2, GST-hMSTN 41-140aa (human); assay: as above
[7] = biological target: T3, GST-hMSTN 61-160aa (human); assay: as above
[8] = biological target: T4, GST-hMSTN 81-180aa (human); assay: as above
[9] = biological target: T2, GST-hMSTN 41-140aa (human); assay: Western blot with the antibody as probe on GST-tagged 100-amino-acid fragments of the human latent myostatin propeptide expressed in E. coli BL21 (lanes 1-8), GST control (lane 9) and human latent myostatin 100 ng (lane 10)
[10] = biological target: T3, GST-hMSTN 61-160aa (human); assay: as above
[11] = biological target: T4, GST-hMSTN 81-180aa (human); assay: as above

binding [1]: binds | binding [2]: binds | binding [3]: binds | binding [4]: binds | binding [5]: binds | binding [6]: binds | binding [7]: binds | binding [8]: binds | binding [9]: binds | binding [10]: binds | binding [11]: binds
B1: MS_MST1032Ha-G1m/MST1032La-k0MC (antibody, human IgG1, kappa, V domains shown)
VH: QSLEESGGRLVTPGGSLTVTCRVSGIDLSSYDISWVRQAPGKGLEWIGIISYAGSTYYASWAKGRFTISKTSTTVDLKMTSLTTEDTATYFCARGVPAYSTGGDLWGPGTLVTVSS
VL: AQVLTQTASSVSAAVGGTVTINCQSSQSVYDNNWLSWFQQKPGQPPKLLIYWASTLASGVPSRFKGSGSGTQFTLTISDLECDDAATYYCAGGYGGGLYAFGGGTKVEIKR
